The values below come from article PMC5427286.

The chains behind the UniProt entries cited, without tags or fusion partners. Residues count along the entry.
UniProt P31170, residues 44-227: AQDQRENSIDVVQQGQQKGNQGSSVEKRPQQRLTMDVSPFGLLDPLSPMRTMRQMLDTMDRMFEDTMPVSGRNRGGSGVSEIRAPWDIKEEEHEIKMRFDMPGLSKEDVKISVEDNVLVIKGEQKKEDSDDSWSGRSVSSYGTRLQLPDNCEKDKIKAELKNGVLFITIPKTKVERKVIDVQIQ

Results are given in words; binding and its absence hold for the method and conditions named.

The experiment has as its target Hsp21, the 21-kDa chloroplast-localized small heat-shock protein of Arabidopsis thaliana (A. thaliana) (UniProt P31170). The experiment is described as follows: SEC; HiLoad/Superdex 200 HR 16/60; pooled Hsp21 incubated with 4 M urea for 20 min on ice before loading; a step of the purification; both purified.

Consider “Hsp21, the 21-kDa chloroplast-localized small heat-shock protein of Arabidopsis thaliana (from UniProt P31170 44-227)”, for which the binding result is on record as “no binding (condition: with 4 M urea)”.
